Literature values in patent US10159658B2, “Compositions comprising statins, biguanides and further agents for reducing cardiometabolic risk” (ELCELYX THERAPEUTICS, INC., priority 2011, dated 2018).
At least one structure is not confirmed: it was looked up by name or label, or the drawing left a doubt.

Test system: atherosclerotic plaque volume
Settings: diabetics; PERISCOPE, Nissen et al. JAMA 2008

In the case of CCc1ccc(CCOc2ccc(CC3SC(=O)NC3=O)cc2)nc1 (stereo not shown) [pioglitazone], the “change of atherosclerotic plaque volume over time” value is listed as −0.16%.
